Assay [1] has as its target T1, ASK7 (Arabidopsis SKP1-like 7), yeast two-hybrid fusion (Arabidopsis thaliana) (UniProt Q9LSY0).
T1 sequence: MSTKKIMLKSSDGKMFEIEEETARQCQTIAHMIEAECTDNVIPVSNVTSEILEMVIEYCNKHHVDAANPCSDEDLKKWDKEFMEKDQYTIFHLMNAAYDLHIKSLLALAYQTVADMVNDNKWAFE
Kind of assay: two-hybrid; one-to-one: pDEST-GBKT7 and pDEST-GADT7 constructs co-transformed into Y2H Gold; SD-Ade-His-Leu-Trp/X-alpha-Gal/aureobasidin agar.

In assay [2] the target is T2, Arabidopsis SKP1-like protein13 (ASK13), yeast two-hybrid fusion (Arabidopsis thaliana) (UniProt Q9M1X5).
T2 sequence: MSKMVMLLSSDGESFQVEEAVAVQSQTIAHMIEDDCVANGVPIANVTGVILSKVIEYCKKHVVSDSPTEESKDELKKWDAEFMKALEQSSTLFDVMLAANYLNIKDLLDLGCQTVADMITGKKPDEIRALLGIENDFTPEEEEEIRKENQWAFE
Kind of assay: two-hybrid; library screen: pGBKT7BD-ASK13 (bait) in Y2H Gold mated with a normalized Arabidopsis Y2H cDNA library (prey); SD lacking histidine, tryptophan, leucine and adenine with X-alpha-Gal and aureobasidin A; retrieved plasmids retested with the empty bait vector and with ASK13.

In assay [3] the target is ASK6 (Arabidopsis SKP1-like 6), yeast two-hybrid fusion (Arabidopsis thaliana). Nature of the assay: two-hybrid; one-to-one: pDEST-GBKT7 and pDEST-GADT7 constructs co-transformed into Y2H Gold; SD-Ade-His-Leu-Trp/X-alpha-Gal/aureobasidin agar.

These are yes or no findings as the source states them, for the method shown. Binding can be weak; no strength is given. Sequences can lack the tags named with a protein.

In the case of “ASK6 (Arabidopsis SKP1-like 6), yeast two-hybrid fusion”, the binding entry in assay [1] is given as “binds”.
With “Hsp70-binding protein1 At3g09350 (library prey) (Arabidopsis thaliana)”, the binding result in assay [2] was “binds”.

B1: ASK7 (Arabidopsis SKP1-like 7), yeast two-hybrid fusion (protein, UniProt Q9LSY0 1-125)
chain: T1 sequence
Take B1: in assay [3], the binding result is “binds”.

These data come from article PMC6054272, “Arabidopsis SKP1-like protein13 (ASK13) positively regulates seed germination and seedling growth under abiotic stress” (Journal of Experimental Botany, 2018).
